{"source": "the supplement of paper PMC8728848", "binders": {"B1": {"name": "SUN4 (Saccharomyces cerevisiae), P53616 (protein)", "chain": "MGSSHHHHHHSSGLVPRGSHNGSIYGDLADFSGPYEKFEDGTIPCGQFPSGQGVIPISWLDEGGWSGVENTDTSTGGSCKEGSYCSYACQPGMSKTQWPSDQPSDGRSIGGLLCKDGYLYRSNTDTDYLCEWGVDAAYVVSELSNDVAICRTDYPGTENMVIPTYVQAGDSLPLTVVDQDTYYTWQGLKTSAAYYVNNAGISVEDACVWGSSSSGVGNWAPLNFGAGSSDGVAYLSLIPNPNNGNALNFNVKIVAADDSSTVNGECIYENGSFSGGSDGCTVSVTAGKAKFVLYN"}}, "test_in_all_cases": "glycan array binding signal (z-score within array); higher = stronger binding", "settings_in_all_cases": "glycan notation: IUPAC condensed, linker removed; mutation: Q318A", "key": {"Gal(a1-3)Gal": {"target": "Gal(a1-3)Gal", "how_it_was_run": "(§1)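 The Consortium for Functional Glycomics database supplied 3228 glycan arrays, of which those lacking an available protein sequence were dropped. The binding signal, a within-array Z-score, was averaged across arrays of the same protein sequence and across linkers. Negative scores can be read as non-binding.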"}, "Gal(a1-3)Gal(b1-3)GlcNAc": {"target": "Gal(a1-3)Gal(b1-3)GlcNAc", "how_it_was_run": "as §1"}, "[1]": {"target": "Gal(a1-3)Gal(b1-3)GlcNAc(b1-2)Man", "how_it_was_run": "as §1"}, "[2]": {"target": "Gal(a1-3)Gal(b1-3)GlcNAc(b1-2)Man(a1-3)[Gal(a1-3)Gal(b1-3)GlcNAc(b1-2)Man(a1-6)]Man(b1-4)GlcNAc(b1-4)GlcNAc", "how_it_was_run": "as §1"}, "[3]": {"target": "Gal(a1-3)Gal(b1-3)GlcNAc(b1-3)GalNAc", "how_it_was_run": "as §1"}, "[4]": {"target": "Gal(a1-3)Gal(b1-3)GlcNAc(b1-6)GalNAc", "how_it_was_run": "as §1"}, "[5]": {"target": "Gal(a1-3)Gal(b1-3)[Fuc(a1-4)]GlcNAc(b1-2)Man(a1-3)[Gal(a1-3)Gal(b1-3)[Fuc(a1-4)]GlcNAc(b1-2)Man(a1-6)]Man(b1-4)GlcNAc(b1-4)GlcNAc", "how_it_was_run": "as §1"}, "Gal(a1-3)Gal(b1-4)Glc": {"target": "Gal(a1-3)Gal(b1-4)Glc", "how_it_was_run": "as §1"}, "Gal(a1-3)Gal(b1-4)GlcNAc": {"target": "Gal(a1-3)Gal(b1-4)GlcNAc", "how_it_was_run": "as §1"}, "[6]": {"target": "Gal(a1-3)Gal(b1-4)GlcNAc(b1-2)Man", "how_it_was_run": "as §1"}, "[7]": {"target": "Gal(a1-3)Gal(b1-4)GlcNAc(b1-2)Man(a1-3)[Gal(a1-3)Gal(b1-4)GlcNAc(b1-2)Man(a1-6)]Man(b1-4)GlcNAc(b1-4)GlcNAc", "how_it_was_run": "as §1"}, "[8]": {"target": "Gal(a1-3)Gal(b1-4)GlcNAc(b1-3)GalNAc", "how_it_was_run": "as §1"}, "[9]": {"target": "Gal(a1-3)Gal(b1-4)GlcNAc(b1-6)GalNAc", "how_it_was_run": "as §1"}, "[10]": {"target": "Gal(a1-3)Gal(b1-4)[Fuc(a1-3)]GlcNAc", "how_it_was_run": "as §1"}, "[11]": {"target": "Gal(a1-3)Gal(b1-4)[Fuc(a1-3)]GlcNAc(b1-2)Man(a1-3)[Gal(a1-3)Gal(b1-4)[Fuc(a1-3)]GlcNAc(b1-2)Man(a1-6)]Man(b1-4)GlcNAc(b1-4)GlcNAc", "how_it_was_run": "as §1"}, "Gal(a1-3)GalNAc": {"target": "Gal(a1-3)GalNAc", "how_it_was_run": "as §1"}, "[12]": {"target": "Gal(a1-3)[Gal(a1-4)]Gal(b1-4)GlcNAc", "how_it_was_run": "as §1"}, "[13]": {"target": "Gal(a1-4)Gal(b1-3)GlcNAc(b1-2)Man(a1-3)[Gal(a1-4)Gal(b1-3)GlcNAc(b1-2)Man(a1-6)]Man(b1-4)GlcNAc(b1-4)GlcNAc", "how_it_was_run": "as §1"}, "Gal(a1-4)Gal(b1-4)Glc": {"target": "Gal(a1-4)Gal(b1-4)Glc", "how_it_was_run": "as §1"}, "Gal(a1-4)Gal(b1-4)GlcNAc": {"target": "Gal(a1-4)Gal(b1-4)GlcNAc", "how_it_was_run": "as §1"}, "[14]": {"target": "Gal(a1-4)Gal(b1-4)GlcNAc(b1-2)Man(a1-3)[Gal(a1-4)Gal(b1-4)GlcNAc(b1-2)Man(a1-6)]Man(b1-4)GlcNAc(b1-4)GlcNAc", "how_it_was_run": "as §1"}, "[15]": {"target": "Gal(a1-4)Gal(b1-4)GlcNAc(b1-3)Gal(b1-4)Glc", "how_it_was_run": "as §1"}, "Gal(a1-4)GlcNAc": {"target": "Gal(a1-4)GlcNAc", "how_it_was_run": "as §1"}, "Gal(a1-6)Glc": {"target": "Gal(a1-6)Glc", "how_it_was_run": "as §1"}, "Gal(b1-2)Gal": {"target": "Gal(b1-2)Gal", "how_it_was_run": "as §1"}, "Gal(b1-3)Gal": {"target": "Gal(b1-3)Gal", "how_it_was_run": "as §1"}, "Gal(b1-3)Gal(b1-4)GlcNAc": {"target": "Gal(b1-3)Gal(b1-4)GlcNAc", "how_it_was_run": "as §1"}, "Gal(b1-3)GalNAc": {"target": "Gal(b1-3)GalNAc", "how_it_was_run": "as §1"}, "[16]": {"target": "Gal(b1-3)GalNAc(a1-3)[Fuc(a1-2)]Gal(b1-4)Glc", "how_it_was_run": "as §1"}, "[17]": {"target": "Gal(b1-3)GalNAc(a1-3)[Fuc(a1-2)]Gal(b1-4)GlcNAc", "how_it_was_run": "as §1"}, "Gal(b1-3)GalNAc(b1-3)Gal": {"target": "Gal(b1-3)GalNAc(b1-3)Gal", "how_it_was_run": "as §1"}, "[18]": {"target": "Gal(b1-3)GalNAc(b1-3)Gal(a1-4)Gal(b1-4)Glc", "how_it_was_run": "as §1"}, "[19]": {"target": "Gal(b1-3)GalNAc(b1-4)Gal(b1-4)Glc", "how_it_was_run": "as §1"}, "[20]": {"target": "Gal(b1-3)GalNAc(b1-4)[Neu5Ac(a2-3)]Gal(b1-4)Glc", "how_it_was_run": "as §1"}, "Gal(b1-3)GlcNAc": {"target": "Gal(b1-3)GlcNAc", "how_it_was_run": "as §1"}, "[21]": {"target": "Gal(b1-3)GlcNAc(a1-3)Gal(b1-4)GlcNAc", "how_it_was_run": "as §1"}, "[22]": {"target": "Gal(b1-3)GlcNAc(a1-6)Gal(b1-4)GlcNAc", "how_it_was_run": "as §1"}, "Gal(b1-3)GlcNAc(b1-2)Man": {"target": "Gal(b1-3)GlcNAc(b1-2)Man", "how_it_was_run": "as §1"}}, "note": "The list shows a part of the results.", "data": [{"binder": "B1", "values": [{"measurement": "glycan array binding signal (z-score)", "setting": "Gal(a1-3)Gal", "value": -0.296}, {"measurement": "glycan array binding signal (z-score)", "setting": "Gal(a1-3)Gal(b1-3)GlcNAc", "value": -0.468}, {"measurement": "glycan array binding signal (z-score)", "setting": "[1]", "value": 0.07}, {"measurement": "glycan array binding signal (z-score)", "setting": "[2]", "value": 0.417}, {"measurement": "glycan array binding signal (z-score)", "setting": "[3]", "value": 0.494}, {"measurement": "glycan array binding signal (z-score)", "setting": "[4]", "value": -0.83}, {"measurement": "glycan array binding signal (z-score)", "setting": "[5]", "value": 1.29}, {"measurement": "glycan array binding signal (z-score)", "setting": "Gal(a1-3)Gal(b1-4)Glc", "value": -0.282}, {"measurement": "glycan array binding signal (z-score)", "setting": "Gal(a1-3)Gal(b1-4)GlcNAc", "value": -0.246}, {"measurement": "glycan array binding signal (z-score)", "setting": "[6]", "value": -0.083}, {"measurement": "glycan array binding signal (z-score)", "setting": "[7]", "value": -0.171}, {"measurement": "glycan array binding signal (z-score)", "setting": "[8]", "value": 0.557}, {"measurement": "glycan array binding signal (z-score)", "setting": "[9]", "value": -0.681}, {"measurement": "glycan array binding signal (z-score)", "setting": "[10]", "value": -1.45}, {"measurement": "glycan array binding signal (z-score)", "setting": "[11]", "value": 0.852}, {"measurement": "glycan array binding signal (z-score)", "setting": "Gal(a1-3)GalNAc", "value": -0.633}, {"measurement": "glycan array binding signal (z-score)", "setting": "[12]", "value": -0.469}, {"measurement": "glycan array binding signal (z-score)", "setting": "[13]", "value": 0.285}, {"measurement": "glycan array binding signal (z-score)", "setting": "Gal(a1-4)Gal(b1-4)Glc", "value": 2.25}, {"measurement": "glycan array binding signal (z-score)", "setting": "Gal(a1-4)Gal(b1-4)GlcNAc", "value": -0.275}, {"measurement": "glycan array binding signal (z-score)", "setting": "[14]", "value": -0.166}, {"measurement": "glycan array binding signal (z-score)", "setting": "[15]", "value": -0.135}, {"measurement": "glycan array binding signal (z-score)", "setting": "Gal(a1-4)GlcNAc", "value": 0.275}, {"measurement": "glycan array binding signal (z-score)", "setting": "Gal(a1-6)Glc", "value": -1.02}, {"measurement": "glycan array binding signal (z-score)", "setting": "Gal(b1-2)Gal", "value": -0.035}, {"measurement": "glycan array binding signal (z-score)", "setting": "Gal(b1-3)Gal", "value": -0.251}, {"measurement": "glycan array binding signal (z-score)", "setting": "Gal(b1-3)Gal(b1-4)GlcNAc", "value": -1.08}, {"measurement": "glycan array binding signal (z-score)", "setting": "Gal(b1-3)GalNAc", "value": 0.173}, {"measurement": "glycan array binding signal (z-score)", "setting": "[16]", "value": -0.359}, {"measurement": "glycan array binding signal (z-score)", "setting": "[17]", "value": -0.683}, {"measurement": "glycan array binding signal (z-score)", "setting": "Gal(b1-3)GalNAc(b1-3)Gal", "value": -0.741}, {"measurement": "glycan array binding signal (z-score)", "setting": "[18]", "value": -0.26}, {"measurement": "glycan array binding signal (z-score)", "setting": "[19]", "value": -0.46}, {"measurement": "glycan array binding signal (z-score)", "setting": "[20]", "value": -0.545}, {"measurement": "glycan array binding signal (z-score)", "setting": "Gal(b1-3)GlcNAc", "value": 0.3}, {"measurement": "glycan array binding signal (z-score)", "setting": "[21]", "value": 1.04}, {"measurement": "glycan array binding signal (z-score)", "setting": "[22]", "value": -0.902}, {"measurement": "glycan array binding signal (z-score)", "setting": "Gal(b1-3)GlcNAc(b1-2)Man", "value": -0.283}]}]}
